PfKRS1: 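Enzyme assay of the cytosolic lysyl-tRNA synthetase in 384-well plates, read by luminescence. Target: Lysine-tRNA ligase, Plasmodium falciparum 3D7 (UniProt Q8IDJ8). Compounds at 30 µM. Direction is inferred from only a few compounds that gave an IC50; most scored high, so higher reads as stronger inhibition. Size under these conditions: about 69,000 compounds, about 49 of them at 50% or above in at least one test.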
LiHisRS: 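Histidine-tRNA ligase, Leishmania infantum (UniProt A4I591). Enzyme assay of histidyl-tRNA synthetase; the read-out is not stated. Concentration: 30 µM. The record gives no direction; compounds that gave an IC50 in retests scored well above the rest, so higher reads as stronger inhibition. The assay is labelled LdHisRS but filed under L. infantum. About 69,000 compounds were tested under these conditions; 0.6% (about 410) showed 50% or more at least once.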
TcHisRS: 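Histidine-tRNA ligase, Trypanosoma cruzi CL Brener (UniProt Q4DA54). Enzyme assay of histidyl-tRNA synthetase; the read-out is not stated. Concentration: 30 µM. The record gives no direction; compounds that gave an IC50 in retests scored well above the rest, so higher reads as stronger inhibition. Of about 69,000 compounds tested this way, about 31 (0.045%) reached 50% or more in at least one test.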
Leishmania in macrophages: 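Cell assay of Leishmania donovani living inside macrophages; the read-out is not stated. Concentration: 30 µM. Higher reads as stronger inhibition (inferred: compounds with an IC50 in retests scored well above the rest). About 69,000 compounds were tested under these conditions; 1.5% (about 1,000) showed 50% or more at least once.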
ClpP1P2: 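ClpP1P2, Mycobacterium tuberculosis (UniProt P9WPC5 and UniProt P9WPC3). Protease assay of ClpP1P2, read by the AMC dye that it sets free. Compounds at 50 µM. Direction is inferred from only a few compounds that gave an IC50; most scored high, so higher reads as stronger inhibition. Most other retested compounds had strongly negative values. Of about 69,000 compounds tested this way, about 10 (0.015%) reached 50% or more in at least one test.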

Chains of the proteins cited; added tags and fusions are not shown. Residues count along the entry.
UniProt Q8IDJ8, 1-583: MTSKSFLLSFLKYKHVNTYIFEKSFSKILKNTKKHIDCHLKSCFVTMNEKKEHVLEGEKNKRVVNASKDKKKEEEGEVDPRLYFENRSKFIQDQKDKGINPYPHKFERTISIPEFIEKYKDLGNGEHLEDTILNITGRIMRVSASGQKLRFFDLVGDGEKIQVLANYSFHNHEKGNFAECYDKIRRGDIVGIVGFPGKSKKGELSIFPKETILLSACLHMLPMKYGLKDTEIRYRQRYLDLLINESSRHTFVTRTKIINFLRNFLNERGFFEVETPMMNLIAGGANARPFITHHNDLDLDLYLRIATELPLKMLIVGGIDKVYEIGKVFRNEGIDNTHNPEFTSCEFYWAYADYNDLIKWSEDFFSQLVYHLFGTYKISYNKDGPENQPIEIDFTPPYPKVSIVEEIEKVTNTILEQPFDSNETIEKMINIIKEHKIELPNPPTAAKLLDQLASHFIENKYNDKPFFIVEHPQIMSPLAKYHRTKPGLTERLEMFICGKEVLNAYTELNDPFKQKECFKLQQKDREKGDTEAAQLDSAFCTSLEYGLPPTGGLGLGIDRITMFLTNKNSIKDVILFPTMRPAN
UniProt A4I591, 1-473: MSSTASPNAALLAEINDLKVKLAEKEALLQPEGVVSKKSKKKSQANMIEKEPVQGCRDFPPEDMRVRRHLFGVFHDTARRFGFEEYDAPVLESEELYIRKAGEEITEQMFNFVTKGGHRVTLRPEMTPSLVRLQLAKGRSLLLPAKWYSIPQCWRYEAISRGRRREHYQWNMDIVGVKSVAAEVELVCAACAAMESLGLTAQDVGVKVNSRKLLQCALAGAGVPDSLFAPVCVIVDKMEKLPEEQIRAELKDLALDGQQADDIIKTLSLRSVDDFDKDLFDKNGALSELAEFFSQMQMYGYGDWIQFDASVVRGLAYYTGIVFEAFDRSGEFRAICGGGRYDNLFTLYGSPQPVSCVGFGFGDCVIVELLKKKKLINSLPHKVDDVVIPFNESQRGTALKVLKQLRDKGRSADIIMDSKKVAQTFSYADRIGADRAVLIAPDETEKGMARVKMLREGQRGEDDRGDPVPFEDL
UniProt Q4DA54, 1-478: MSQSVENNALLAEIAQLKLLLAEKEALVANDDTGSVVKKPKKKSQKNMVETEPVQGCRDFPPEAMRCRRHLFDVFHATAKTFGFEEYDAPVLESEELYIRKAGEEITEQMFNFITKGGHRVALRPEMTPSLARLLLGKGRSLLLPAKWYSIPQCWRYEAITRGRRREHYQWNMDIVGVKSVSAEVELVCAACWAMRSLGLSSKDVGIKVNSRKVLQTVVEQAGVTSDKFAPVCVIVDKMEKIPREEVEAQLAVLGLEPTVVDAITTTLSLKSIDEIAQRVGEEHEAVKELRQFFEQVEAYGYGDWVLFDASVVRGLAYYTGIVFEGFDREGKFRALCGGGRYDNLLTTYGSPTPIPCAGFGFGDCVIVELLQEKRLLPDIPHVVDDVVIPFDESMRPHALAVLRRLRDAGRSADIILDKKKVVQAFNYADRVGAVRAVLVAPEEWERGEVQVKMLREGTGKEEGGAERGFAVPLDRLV
UniProt P9WPC5, whole entry: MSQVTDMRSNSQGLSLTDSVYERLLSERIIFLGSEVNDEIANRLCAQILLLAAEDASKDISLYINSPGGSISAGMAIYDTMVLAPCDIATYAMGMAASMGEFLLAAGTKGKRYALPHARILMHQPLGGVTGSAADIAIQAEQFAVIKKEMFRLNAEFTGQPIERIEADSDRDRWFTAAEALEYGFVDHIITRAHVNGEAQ
UniProt P9WPC3, whole entry partner: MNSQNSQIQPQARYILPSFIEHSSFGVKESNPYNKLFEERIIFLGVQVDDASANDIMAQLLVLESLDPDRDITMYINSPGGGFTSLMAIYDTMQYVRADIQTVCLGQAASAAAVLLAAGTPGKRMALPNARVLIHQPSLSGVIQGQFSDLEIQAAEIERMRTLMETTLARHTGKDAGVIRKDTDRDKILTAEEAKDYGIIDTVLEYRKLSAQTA

Each number is a percent effect as filed.
The controls that fix the scale are not given in the record; negative values are as filed.
Compounds were drawn at random from those tested, without regard to their results.
Two or more numbers in one place are separate tests of the same structure; such repeats can differ widely.
A dash means the value is not listed here; it may have been measured.

Compound	PfKRS1	LiHisRS	TcHisRS	Leishmania in macrophages	ClpP1P2
Cc1cc(CN2CC[C@H]3C[C@H](C(=O)N4CCC(C)CC4)O[C@H]3C2)no1	-0.1281%	10.53%	0.5525%	-	0.5055%
CCOc1ccc(C(=O)N2CCN(c3nccn3C)CC2)cc1	5.265%	9.589%	8%	-	7.841%
O=C(O)C(F)(F)F.[H][C@@]12CCN(C(=O)c3ccccn3)[C@]1([H])CCC(=O)N2Cc1csc(C)n1	-	-	-	8.776%	-
CNc1cc(C2CCCN2Cc2ccccc2OCC(=O)O)ccn1 (centres unmarked)	4.226%	8.333%	8.108%	-7.976%	4.299%
COCC1CN(C(=O)CC2Cc3ccccc3C2)Cc2c1cnn2C (centres unmarked)	2.249%	11%	6.122%	-5.225%	-13.32%
Cc1nc(NCc2noc(C3CCCO3)n2)c2ccsc2n1 (centres unmarked)	3.872%	22.34%	9.091%	-1.259%	-5.661%
C=C(C)CN1CCCC(NS(C)(=O)=O)C1 (centres unmarked)	3.198%	6.25%	0.5525%	11.84%	-4.659%
O=C(Nc1ccc(F)cc1F)NC1(CO)CCOCC1	4.266%	6.667%	9.091%	9.018%	-7.063%
CC(C)c1cc(NCC2(CO)CCCC2)ncn1	4.608%	22.22%	5.952%	0.8516%	-14.76%
O=C1CCC2(CCN(Cc3ccc(F)cc3Cl)CC2)CN1CCO	1.29%	14.58%	-3.352%	-2.438%	-6.912%
Cc1ccc(-c2nc(CN3CCN(C(=O)C4CC4)CC3)cs2)o1	-0.814%	21.74%	9.577%	34.02%	-0.6295%
COCCN1C[C@@H]2[C@@H](OC)CCN(S(=O)(=O)c3cccnc3)[C@@H]2C1	0.5822%	26%	10.78%	-	-10.62%
O=C(CCc1cc2n(n1)CCCN(C(=O)[C@H]1CCCO1)C2)NC1CC1	2.058%	6.742%	4.523%	20.37%	10.91%
[H][C@@]12COC[C@@H](C(=O)NC)[C@]1([H])CN(C(=O)c1ccc(C)c(C)c1)C2	-	-	-	7.981% & 4.09%	-
CC(C)(C)C(=O)NCCC(=O)NS(=O)(=O)c1cccc(C#N)c1	6.522%	-14.29%	4.04%	0.3052%	-0.9564%
CC(C)(C)c1n[nH]c(C2CN(C(=O)CCc3cscn3)CCO2)n1 (centres unmarked)	-2.298%	14.89%	-1.527%	25.24%	9.866%
Cc1sc2c(C3CCCN(S(C)(=O)=O)C3)nc(C)n2c1C (centres unmarked)	0.7911%	17.89%	6.716%	17.62% & 9.282%	0.2983%
C=C(C)CNC(=O)C1CCC(=O)N(C2CCCC2)C1 (centres unmarked)	6.118%	18.18%	2.174%	21.53%	-2.834%
CCC(CC)(CC(=O)OC)NC(=O)Nc1nnc(-c2ccccn2)s1	-6.869%	16.13%	3.247%	-20.4%	-10.3%
N#Cc1ccc(CN2CCCC2Cn2cccn2)c(F)c1 (centres unmarked)	-0.1714%	16.36%	5.848%	14.6%	-9.709%
O=C1CC2(CCN(CCCO)CC2)CN1Cc1ccc(F)c(F)c1	4.314%	8.989%	6.533%	-4.088%	15.09%
COC1CN(CCO)S(=O)(=O)c2ccccc21 (centres unmarked)	3.864%	14.29%	10.11%	24.57%	6.523%
CC(=O)NCC1CCN(C(=O)c2ccc(Sc3ccccn3)cc2)CC1	2.828%	14.29%	10.31%	2.79%	11.33%
Cn1nc(Cn2ccnc2)c2c1CN(c1ncccn1)C2	3.627%	3.509%	2.151%	-	-3.375%
CCc1c(C(=O)N2CCN(c3cnccn3)CC2)cnn1C(C)(C)C	-0.4979%	5.769%	-0.5714%	-10.53%	-16.7%
CNc1oc(-c2cc(S(=O)(=O)N3CCCCCC3)c(C)o2)nc1C#N	3.534%	11.65%	-6.011%	26.79%	4.013%
O=C(c1ccccc1)N1CCN(C2CCc3ccc(F)cc32)CC1 (centres unmarked)	1.305%	20.55%	1.97%	11.52%	-12.84%
Cc1ccc(CN2C(=O)CC[C@]23CC[C@@H](NCC2CCOC2)CC3)cc1 (some centres unmarked)	-0.2753%	5.825%	5.825%	-	-2.991%
CCC1CCCCN1C(=O)Cn1cnc(C#N)n1 (centres unmarked)	-2.748%	4.651%	2.381%	0.192%	-15.61%
COCCN1CCC(c2nc3ccc(-c4ccccc4)cn3n2)CC1.O=C(O)C(F)(F)F	-	-	-	21.01%	-
c1cncc(CN2CC(Cc3nccc4cc[nH]c34)C2)c1	1.016%	21.28%	10.85%	3.757%	-26.31%
O=C(O)C(F)(F)F.[H][C@@]12CN(Cc3ccc(OC)cc3)C[C@]1([H])C(=O)N(c1cncnc1)C2	-	-	-	5.729%	-
O=C(N[C@@H]1CN(Cc2ccccc2)C[C@@H]2CCCO[C@@H]21)C1CC1	7.095%	16.98%	3.784%	-	8.249%
Cn1nc(COCC2CC2)c2c1CCN(Cc1cccs1)C2	3.663%	9.91%	2.21%	-	-24.82%
O=C(c1ccncc1)N1CCN2C[C@H](Oc3cncnc3)C[C@H]2C1	5.219%	27.78%	5.473%	-	-10.84%
COc1ccccc1C1Cn2ccnc2CN1Cc1c[nH]nc1C (centres unmarked)	1.297%	5.674%	1.88%	26.87%	-8.91%
CSCCCNC(=O)Nc1cccc(-c2nccn2C)c1	2.099%	8.654%	0.813%	-9.537%	-5.843%
CCOCC1CC2(CCN(C(=O)CC3=CCCCC3)CC2)CO1 (centres unmarked)	2.004%	6.897%	7.595%	-8.863%	5.47%
Cc1cccc(CN2CCC3(CCCN(C(=O)NC4CC4)C3)C2=O)n1.O=C(O)C(F)(F)F (centres unmarked)	-	-	-	0.01986%	-
Cc1cnc(C)c(N2CCC(c3nnc(CN(C)C)n3C3CC3)CC2)n1	-2.799%	-6.061%	2.116%	11.08%	-0.01384%
COc1ccc(NC(=O)C2OC(c3cccs3)=NN2C(C)=O)cc1 (centres unmarked)	1.908%	-15.84%	3.409%	27.86%	-9.111%

Repeated from the top, 5 entries:

{"compound": "Cc1cc(CN2CC[C@H]3C[C@H](C(=O)N4CCC(C)CC4)O[C@H]3C2)no1", "PfKRS1": -0.1281, "LiHisRS": 10.53, "TcHisRS": 0.5525, "ClpP1P2": 0.5055}
{"compound": "CCOc1ccc(C(=O)N2CCN(c3nccn3C)CC2)cc1", "PfKRS1": 5.265, "LiHisRS": 9.589, "TcHisRS": 8, "ClpP1P2": 7.841}
{"compound": "O=C(O)C(F)(F)F.[H][C@@]12CCN(C(=O)c3ccccn3)[C@]1([H])CCC(=O)N2Cc1csc(C)n1", "Leishmania in macrophages": 8.776}
{"compound": "CNc1cc(C2CCCN2Cc2ccccc2OCC(=O)O)ccn1", "stereo": "centres unmarked", "PfKRS1": 4.226, "LiHisRS": 8.333, "TcHisRS": 8.108, "Leishmania in macrophages": -7.976, "ClpP1P2": 4.299}
{"compound": "COCC1CN(C(=O)CC2Cc3ccccc3C2)Cc2c1cnn2C", "stereo": "centres unmarked", "PfKRS1": 2.249, "LiHisRS": 11, "TcHisRS": 6.122, "Leishmania in macrophages": -5.225, "ClpP1P2": -13.32}

From ChEMBL document CHEMBL3988442, “University of Dundee, Small-Polar-MMV Screening Library” (2021).